Data published in publication PMC6297230, “Structural basis of meiotic telomere attachment to the nuclear envelope by MAJIN-TERB2-TERB1” (Nature Communications, 2018).
Results are given in words; binding and its absence hold for the method and conditions named. Some results given as binding are weak or reduced against the parent protein; the word gives no strength. Each block holds one binder with its values, some of them ahead of it.

B4: TERB2 N-terminal end (amino acids 1–107) (domain or fragment, human, UniProt Q8NHR7 1-107, looked up)
chain: MFQGQRGWFCGSVSQDLRQFWVAEGGTISDPRAADFLFSCDASHPDTLRIYQSLDYIEDNATVFHAYYLSAVANAKIKNSVALGHFILPPACLQKEIRRKIGSFIWE
notes: Forms large aggregates in isolation; source: E. coli BL21 (DE3), co-expressed with TERB1, purified (Ni-NTA, amylose, ion exchange, SEC)

Experiments:
[1] = target: T1, TERB1 TRF1-binding domain (amino acids 561–658) (human) (UniProt Q8NA31); experiment: SEC; co-purification of recombinantly co-expressed proteins from E. coli (Ni-NTA, amylose, ion exchange, tag cleavage, size exclusion chromatography); elution profiles and SDS–PAGE; both purified
T1 sequence: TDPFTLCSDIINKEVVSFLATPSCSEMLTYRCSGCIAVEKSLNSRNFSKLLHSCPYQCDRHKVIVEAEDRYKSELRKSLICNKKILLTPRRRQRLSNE

[2] = target: T2, full length TERB2 (1–220) (human, UniProt Q8NHR7 1-220); experiment: SEC-SAXS; purified complexes at > 10 mg/ml on Superdex 200 Increase 10/300 GL in 20 mM Tris pH 8.0, 250 mM KCl; ab initio, rigid body and multi-phase modelling; both purified
T2 construct: human TERB2, canonical isoform Q8NHR7, full length, amino acids 1-220; source: E. coli BL21 (DE3), co-expressed with MAJIN and TERB1, purified (Ni-NTA, amylose, ion exchange, SEC)
T2 sequence (looked up): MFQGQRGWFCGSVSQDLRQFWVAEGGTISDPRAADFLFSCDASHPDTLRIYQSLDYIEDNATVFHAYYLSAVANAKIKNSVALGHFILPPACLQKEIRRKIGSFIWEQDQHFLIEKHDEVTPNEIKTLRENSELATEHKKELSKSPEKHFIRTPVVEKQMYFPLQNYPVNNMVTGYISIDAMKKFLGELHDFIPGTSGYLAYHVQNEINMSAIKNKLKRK

[3] = target: B4; experiment: as above
[4] = target: T2, full length TERB2 (1–220); experiment: SEC; co-purification of recombinantly co-expressed proteins from E. coli (Ni-NTA, amylose, ion exchange, tag cleavage, size exclusion chromatography); elution profiles and SDS–PAGE; both purified
[5] = target: B4; experiment: as above
[6] = target: T1, TERB1 TRF1-binding domain (amino acids 561–658) (human); experiment: SEC-SAXS; purified complexes at > 10 mg/ml on Superdex 200 Increase 10/300 GL in 20 mM Tris pH 8.0, 250 mM KCl; ab initio, rigid body and multi-phase modelling; both purified

binding [1]: binds
B1: TERB2 N-terminal end, longer construct (amino acids 1–119) (domain or fragment, UniProt Q8NHR7 1-119)
chain: MFQGQRGWFCGSVSQDLRQFWVAEGGTISDPRAADFLFSCDASHPDTLRIYQSLDYIEDNATVFHAYYLSAVANAKIKNSVALGHFILPPACLQKEIRRKIGSFIWEQDQHFLIEKHDE

binding [4]: binds
B3: TERB1 TRF1-binding domain (amino acids 561–658) (domain or fragment, human, UniProt Q8NA31 561-658, looked up)
chain: TDPFTLCSDIINKEVVSFLATPSCSEMLTYRCSGCIAVEKSLNSRNFSKLLHSCPYQCDRHKVIVEAEDRYKSELRKSLICNKKILLTPRRRQRLSNE
notes: human TERB1, canonical isoform Q8NA31, amino acids 561-658; The discussion prints 568–658 once for TRFB; also called TERB1_(TRFB); TRFB; source: E. coli BL21 (DE3), co-expressed with TRF1 TRFH and/or TERB2, purified (Ni-NTA, amylose, ion exchange, SEC)

Continued, binder first:

B2: TERB1 TERB2-binding site (amino acids 585–642) (domain or fragment, human, UniProt Q8NA31 585-642, looked up)
chain: SEMLTYRCSGCIAVEKSLNSRNFSKLLHSCPYQCDRHKVIVEAEDRYKSELRKSLICN
notes: human TERB1, canonical isoform Q8NA31, amino acids 585-642; Forms large aggregates in isolation; also called TERB1T2B; T2B; source: E. coli BL21 (DE3), co-expressed with TERB2, purified (Ni-NTA, amylose, ion exchange, SEC)
binding [2]: binds
binding [3]: binds
binding [4]: binds
binding [5]: binds

Binder: B4
binding [6]: binds
